Legend:
Assay type in all cases: cell-based, Murine
Conditions in all cases: ratio of TC50 to IC50
IL-6 transcripts = test: Inhibition of LPS induction of IL-6 transcripts in macrophages (rt-PCR)
Procedure: (§1) Murine macrophages were treated with LPS in the presence of various exemplary compounds described above. Subsequently, the cells were harvested and the transcripts for IL-6, iNOS, and INF-β quantified via rt-PCR. IC50 is the concentration of the compounds required to inhibit 50% of the mRNA transcripts induced by LPS. TC50 is the concentration of the compounds required to diminish the MTS signal by 50% (MTS signal correlates with cell metabolism/viability). Therapeutic Index (TI) is the ratio of TC50 to IC50.
(§2) In TABLE 4, data are provided that show effects of exemplary compounds described above on the inhibition of LPS induction of IL-6, iNOS, and INF-β transcripts in macrophages. The IL-6, iNOS, and INF-β transcripts are key mediators in a plethora of signaling networks that are involved in normal physiology and pathological processes. The mechanism by which LPS induces the IL-6, iNOS, and INF-β transcripts is via a network of signaling events. […] Data in TABLE 4 that was not calculatable is noted “NC.”

iNOS transcripts = test: Inhibition of LPS induction of iNOS transcripts in macrophages (rt-PCR)
Procedure: as §1, §2

INF-β transcripts = test: Inhibition of LPS induction of INF-β transcripts in macrophages (rt-PCR)
Procedure: as §1, §2

SMILES | Average Therapeutic Index (TI) IL-6 (IL-6 transcripts) | Average Therapeutic Index (TI) iNOS (iNOS transcripts) | Average Therapeutic Index (TI) INF-β (INF-β transcripts)
Cn1c(-c2cccc(Cl)c2)c[nH]c1=S [COB-119] | 8.7 | 6.5 | 8.5
CCn1c(-c2cccc(Cl)c2)c[nH]c1=O [COB-125] | 16.1 | 11.6 | 13.9
COc1ccc(OC)c(-c2c[nH]c(=S)n2C)c1 [COB-132] | 13.8 | 9.5 | 4.2
COc1ccc(OC)c(C2(O)CSC(=S)N2Cc2ccccc2)c1 (stereo not shown) [COB-143] | 1.8 | 7.7 | 23.0
OC1(c2ccccc2)CSC(=S)N1Cc1cccnc1 (stereo not shown) [COB-152] | 4.2 | 115.4 | 115.4
OC1(c2ccccc2)CSC(=S)N1CCCc1ccccc1 (stereo not shown) [COB-168] | 0.7 | 8.0 | 8.0
OC1(c2ccccc2)CSC(=S)N1Cc1nc2ccccc2[nH]1 (stereo not shown) [COB-183] | >2.6 | >5.3 | >6.3
OC1(c2ccccc2)CSC(=S)N1Cc1ccncc1 (stereo not shown) [COB-187] | – | 40.0 | 120.0
OC1(c2ccccc2)CSC(=S)N1Cc1ccc2[nH]ccc2c1 (stereo not shown) [COB-188] | – | 52.0 | 52.0
Oc1cccc(C2(O)CSC(=S)N2Cc2ccccc2)c1 (stereo not shown) [COB-196] | – | 34.0 | 45.3
Oc1cccc(C2(O)CSC(=S)N2Cc2cccnc2)c1 (stereo not shown) [COB-198] | – | 113.3 | 85.0
COc1ccc(C2(O)CSC(=S)N2Cc2cccnc2)c(OC)c1 (stereo not shown) [COB-199] | – | 10.5 | >4.5
Oc1ccc(C2(O)CSC(=S)N2Cc2cccnc2)c(O)c1 (stereo not shown) [COB-200] | – | 22.0 | 27.5
COc1ccc(C2(O)CSC(=S)N2Cc2cccnc2)cc1 (stereo not shown) [COB-201] | – | 22.2 | 8.0
O=c1oc2ccccc2cc1C1(O)CSC(=S)N1Cc1cccnc1 (stereo not shown) [COB-202] | – | 19.5 | 9.8
COc1ccc(OC)c(-c2csc(=S)n2Cc2cccnc2)c1 [COB-203] | 13.8 | – | 33.8
COc1ccc(-c2csc(=S)n2Cc2cccnc2)c(OC)c1 [COB-204] | 26.0 | 18.6 | 9.3
COc1ccc(-c2csc(=S)n2Cc2cccnc2)cc1 [COB-206] | 11.4 | 2.2 | 4.0
CCCN1C(=S)SCC1(O)c1ccc(Cl)c(Cl)c1 (stereo not shown) [COB-210] | 2.8 | 22.5 | 15.0
CCCCCCN1C(=S)SCC1(O)c1ccccc1 (stereo not shown) [COB-212] | – | 15.9 | 15.0
CCCn1c(-c2cccnc2)csc1=S [COB-214] | 38.0 | 22.0 | –
CCCn1c(-c2cccc([N+](=O)[O-])c2)csc1=S [COB-215] | ~11.5 | ~10 | ~10
CCCn1c(-c2cc(OC)ccc2OC)csc1=S [COB-220] | 10.9 | 16.0 | 4.9
Oc1ccc(Cl)cc1C1(O)CSC(=S)N1Cc1ccccc1 (stereo not shown) [COB-221] | >1.8 | 10.0 | 12.0
Oc1ccc(Cl)cc1C1(O)CSC(=S)N1Cc1cccnc1 (stereo not shown) [COB-222] | 1.7 | 33.3 | 33.3
Cc1ccc(C)c(C2(O)CSC(=S)N2Cc2cccnc2)c1 (stereo not shown) [COB-223] | 4.0 | 35.0 | 35.0
Cc1ccccc1C1(O)CSC(=S)N1Cc1cccnc1 (stereo not shown) [COB-224] | 3.7 | 32.5 | 28.9
COc1ccc(F)cc1C1(O)CSC(=S)N1Cc1cccnc1 (stereo not shown) [COB-225] | 2.0 | 65.0 | 65.0
OC1(c2cc(C(F)(F)F)ccc2Cl)CSC(=S)N1Cc1cccnc1 (stereo not shown) [COB-226] | 2.6 | 22.0 | 22.0
CCCn1c(-c2ccc(C#N)cc2)csc1=S [COR-216] | ~12 | ~10 | ~10
